From publication PMC7333352

B1: SGIV ORF122 (VP122), expressed by the infecting virus (protein, UniProt Q5YFE3 1-210)
chain: MAPGKRIVLKNNPRGGVWQGPIPNDKWVSEIMPWASDLGKRLLVLTEDVIAKLTWTHMGARVSDFASVRWPSVEDDYIWIDEPTEEWLRSRKVISWPVRVMWIKTSKEGKLPAQLDALAKKLSGFDDYAKLDTLAAKIERKRFRYPSAMAVVAKHHHKKYLERQGITAHSAFELVLKHWKPEKYFFACVDLNDWTENPAVAALVKKWGLE
B2: SGIV ORF132 (VP132), expressed by the infecting virus (protein, UniProt Q5YFD3 1-275)
chain: MHSVKSLLVDISKWELNASAQEYVAHVETAESPATMGKRPKVKRVSKRPVCELLPPYVDESIRRSVGSIYHAHWPKDRLRPTVEKQAVLVGLITRSNPELDVNELVKTMRVKCDRLKKGAREAEKVSHLLPAPWAQPAWSKEIPDMSKALKVLGESEGRKWACWAQSVTCIGVAICSKQHEKPFRSVWKDTLEKLRRYAPAALLRSEYGSVFFTLCVPLLAEMTGAPPQHRPLEWWAETCASIGHELVRSTVQGAYLKHDKDLLRRMVYTRYFEK

Biological target: GFP-Atg5 (autophagy related gene 5)
Test: affinity purification with mass spectrometry; GS cells transfected with pEGFP-C1, pEGFP-LC3 or pEGFP-Atg5 and then infected with SGIV; whole cell lysates precipitated with GFP antibody; IP products analysed by RPLC-MS

Row | Binder | binding
1 | B1 | binds
2 | B2 | binds

No constants are given. Whether binding was seen depends on the method and setting. In cells and extracts the contact can be indirect. Here binding means that the protein was enriched with, or labelled near, the bait; the list need not be complete.
